Reference: US7601737B2, “Isotopically substituted proton pump inhibitors” (priority 2005, dated 2009)
Some of these results come from one statement about several compounds together.

System: human cryopreserved hepatocytes
Settings: pooled human cryopreserved hepatocytes; for Intrinsic clearance, reduction compared to non-deuterated counterpart: M2 formation

Sodium (R/S)-{[5-(difluoromethoxy)]-2-[(3-methoxy-4-trideuteriomethoxy-2-pyridinyl)methylsulphinyl]-1H-benzimidazolide} hydrate [Example 6]
M2 formation rate, reduction compared to non-deuterated counterpart: at least 2.5 fold | Substrate concentrations at which formation of M2 appeared to be inhibited: above 100 μM | Intrinsic clearance, reduction compared to non-deuterated counterpart: at least 4.7 fold

O.O.O.[2H]C([2H])([2H])Oc1ccnc(C[S@@+]([O-])c2nc3cc(OC(F)F)ccc3[nH]2)c1OC.[Na] [Example 30, (R)-5-Difluoromethoxy-2-[(3-methoxy-4-trideuteriomethoxy-2-pyridinyl)methylsulfinyl]-1H-benzimidazole sodium salt trihydrate]
Intrinsic clearance, reduction compared to non-deuterated counterpart: at least 4.7 fold

O.[2H]C([2H])([2H])Oc1ccnc(C[S+]([O-])c2nc3cc(OC(F)F)ccc3[nH]2)c1OC.[Na] (racemic) [Example 32, rac-5-Difluoromethoxy-2-[(3-methoxy-4-trideuteriomethoxy-2-pyridinyl)methylsulfinyl]-1H-benzimidazole sodium salt mono hydrate]
Intrinsic clearance, reduction compared to non-deuterated counterpart: at least 4.7 fold
